Here are results for seven molecules from the supplement of paper PMC4604168 (melanoma cell lines).

The other results are listed elsewhere or left out. Single values are uncertain, as repeats are few or missing.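 Cells were imaged in 1,536-well plates, and nuclei stained with an antibody against cleaved PARP were counted against all DNA-stained nuclei to give the apoptosis fraction. Screening doses were chosen to leave most cells alive, and resting and induced cleaved-PARP levels differ strongly between cell lines.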

The test system of the assay is WM1716. As to the kind of experiment: cleaved PARP positive nuclei fraction relative to DMSO control; melanoma cells; higher = more apoptosis. As to conditions: library dose: low library concentration; 72 h.
As for `CC(=O)c1c(C)c2cnc(Nc3ccc(N4CCNCC4)cn3)nc2n(C2CCCC2)c1=O` [palbociclib] + O=C(O)c1ccc(-c2c[nH]c3ncc(-c4ccccc4)cc23)cc1C1CCCC1 [GSK650394] (first compound 0.04 µM, partner dose 0.16 µM), the “cleaved PARP positive nuclei fraction” value is 180%.

Take `OCCn1cc(-c2cnc3nnn(Cc4ccc5ncccc5c4)c3n2)cn1` + Oc1cc(-c2nc(-c3ccccc3)[nH]c2-c2ccncc2)ccc1Cl [L779450] (first compound 1 µM, partner dose 0.2 µM): the “cleaved PARP positive nuclei fraction” value turned out to be 82%.

For the molecule `COc1cc(Nc2ncc(F)c(Nc3ccc4c(n3)NC(=O)C(C)(C)O4)n2)cc(OC)c1OC` [Tamatinib] + CN(NC(=O)CC(=O)NN(C)C(=S)c1ccccc1)C(=S)c1ccccc1 [STA4783] (first compound 0.4 µM, partner dose 0.006 µM), the “cleaved PARP positive nuclei fraction” value was determined as 218%.

Consider `Cc1ccc(NC(=O)c2cccc(N(C)C)c2)cc1NC(=O)c1ccc(O)cc1` + CC(C)(C)c1cnc(CSc2cnc(NC(=O)C3CCNCC3)s2)o1 [SNS-032] (first compound 2 µM, partner dose 0.01 µM), for which the “cleaved PARP positive nuclei fraction” value stood at 98.9%.

For the molecule `C[C@]1(c2nc3c(C(N)=O)cccc3[nH]2)CCCN1` [Veliparib] + Cc1ccc(NC(=O)c2cccc(N(C)C)c2)cc1NC(=O)c1ccc(O)cc1 [ZM336372] (first compound 1.4 µM, partner dose 2 µM), the “cleaved PARP positive nuclei fraction” value was 82%.

For the molecule `O=C(CCCCCCC(=O)Nc1ccccc1)NO` [vorinostat] + CN(C)S(=O)(=O)c1ccc2c(c1)/C(=C/c1cc3c([nH]1)CCCC3)C(=O)N2 [SU6656] (first compound 0.08 µM, partner dose 0.4 µM), the “cleaved PARP positive nuclei fraction” value is 65.2%.

In the case of `Cn1nnc2c(C(N)=O)ncn2c1=O` [temozolomide] + Oc1nc(-c2ccc(C(F)(F)F)cc2)nc2c1CSCC2 [XAV939] (first compound 2 µM, partner dose 2 µM), the “cleaved PARP positive nuclei fraction” value worked out at 127%.
